Here are results for 29 targets from the supplement of paper PMC10849652.

Chains of the proteins cited; added tags and fusions are not shown. Lines headed by an entry give the natural chain unless they say otherwise; changes in a name come on top.
UniProt Q96KC8: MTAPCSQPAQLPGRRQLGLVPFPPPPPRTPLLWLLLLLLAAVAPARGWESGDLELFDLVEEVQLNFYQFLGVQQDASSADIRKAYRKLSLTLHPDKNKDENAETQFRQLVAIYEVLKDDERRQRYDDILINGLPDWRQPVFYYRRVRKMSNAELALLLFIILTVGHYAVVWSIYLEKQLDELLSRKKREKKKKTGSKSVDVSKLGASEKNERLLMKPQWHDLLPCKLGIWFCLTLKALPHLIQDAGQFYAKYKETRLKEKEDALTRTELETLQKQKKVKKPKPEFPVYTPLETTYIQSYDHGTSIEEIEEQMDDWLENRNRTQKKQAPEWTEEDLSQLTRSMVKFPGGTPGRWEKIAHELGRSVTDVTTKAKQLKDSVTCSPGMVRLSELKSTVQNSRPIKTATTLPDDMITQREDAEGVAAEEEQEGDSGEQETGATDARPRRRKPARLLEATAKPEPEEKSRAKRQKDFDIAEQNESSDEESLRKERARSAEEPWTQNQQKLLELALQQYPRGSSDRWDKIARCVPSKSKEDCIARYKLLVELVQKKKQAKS
UniProt P25685, whole entry, looked up: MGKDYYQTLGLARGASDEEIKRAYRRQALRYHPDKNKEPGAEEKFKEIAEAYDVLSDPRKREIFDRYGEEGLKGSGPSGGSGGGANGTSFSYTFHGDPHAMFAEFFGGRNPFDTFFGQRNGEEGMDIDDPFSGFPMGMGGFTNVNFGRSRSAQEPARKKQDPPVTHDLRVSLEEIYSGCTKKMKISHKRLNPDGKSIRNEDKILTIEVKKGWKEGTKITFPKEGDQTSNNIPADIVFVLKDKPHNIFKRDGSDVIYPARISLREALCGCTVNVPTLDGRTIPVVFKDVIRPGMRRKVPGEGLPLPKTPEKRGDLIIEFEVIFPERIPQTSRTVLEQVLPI
UniProt O43237, whole entry, looked up: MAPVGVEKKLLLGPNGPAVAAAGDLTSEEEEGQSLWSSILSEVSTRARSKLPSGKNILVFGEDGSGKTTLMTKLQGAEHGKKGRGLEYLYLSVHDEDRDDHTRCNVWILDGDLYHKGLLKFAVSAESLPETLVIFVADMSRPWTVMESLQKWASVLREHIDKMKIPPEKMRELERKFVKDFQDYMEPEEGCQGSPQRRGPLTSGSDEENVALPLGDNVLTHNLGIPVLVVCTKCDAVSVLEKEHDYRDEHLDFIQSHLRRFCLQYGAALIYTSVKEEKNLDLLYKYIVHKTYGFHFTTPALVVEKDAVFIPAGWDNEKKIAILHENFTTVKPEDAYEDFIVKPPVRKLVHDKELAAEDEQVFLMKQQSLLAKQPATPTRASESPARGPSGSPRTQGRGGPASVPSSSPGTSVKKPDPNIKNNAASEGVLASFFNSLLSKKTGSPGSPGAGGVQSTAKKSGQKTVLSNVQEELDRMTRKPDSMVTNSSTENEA
UniProt P23919: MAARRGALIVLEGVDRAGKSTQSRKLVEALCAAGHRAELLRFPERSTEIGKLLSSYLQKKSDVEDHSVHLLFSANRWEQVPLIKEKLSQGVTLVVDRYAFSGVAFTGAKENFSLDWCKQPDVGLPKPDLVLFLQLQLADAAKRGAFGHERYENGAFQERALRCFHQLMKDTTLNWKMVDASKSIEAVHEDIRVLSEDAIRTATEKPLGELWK
UniProt Q99704: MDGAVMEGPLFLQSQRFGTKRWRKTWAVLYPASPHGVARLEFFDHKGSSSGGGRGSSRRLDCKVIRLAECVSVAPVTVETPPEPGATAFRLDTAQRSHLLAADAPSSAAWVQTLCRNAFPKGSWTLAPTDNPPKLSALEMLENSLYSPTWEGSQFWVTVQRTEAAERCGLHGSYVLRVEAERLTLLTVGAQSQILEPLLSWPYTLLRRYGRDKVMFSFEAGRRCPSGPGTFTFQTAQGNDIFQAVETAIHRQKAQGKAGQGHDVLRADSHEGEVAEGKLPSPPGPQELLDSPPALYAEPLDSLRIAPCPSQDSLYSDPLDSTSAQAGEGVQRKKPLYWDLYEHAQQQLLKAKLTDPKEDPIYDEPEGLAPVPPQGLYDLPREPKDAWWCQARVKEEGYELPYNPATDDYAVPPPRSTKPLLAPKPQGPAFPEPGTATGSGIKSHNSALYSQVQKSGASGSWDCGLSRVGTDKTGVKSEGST
UniProt Q13409, whole entry, looked up: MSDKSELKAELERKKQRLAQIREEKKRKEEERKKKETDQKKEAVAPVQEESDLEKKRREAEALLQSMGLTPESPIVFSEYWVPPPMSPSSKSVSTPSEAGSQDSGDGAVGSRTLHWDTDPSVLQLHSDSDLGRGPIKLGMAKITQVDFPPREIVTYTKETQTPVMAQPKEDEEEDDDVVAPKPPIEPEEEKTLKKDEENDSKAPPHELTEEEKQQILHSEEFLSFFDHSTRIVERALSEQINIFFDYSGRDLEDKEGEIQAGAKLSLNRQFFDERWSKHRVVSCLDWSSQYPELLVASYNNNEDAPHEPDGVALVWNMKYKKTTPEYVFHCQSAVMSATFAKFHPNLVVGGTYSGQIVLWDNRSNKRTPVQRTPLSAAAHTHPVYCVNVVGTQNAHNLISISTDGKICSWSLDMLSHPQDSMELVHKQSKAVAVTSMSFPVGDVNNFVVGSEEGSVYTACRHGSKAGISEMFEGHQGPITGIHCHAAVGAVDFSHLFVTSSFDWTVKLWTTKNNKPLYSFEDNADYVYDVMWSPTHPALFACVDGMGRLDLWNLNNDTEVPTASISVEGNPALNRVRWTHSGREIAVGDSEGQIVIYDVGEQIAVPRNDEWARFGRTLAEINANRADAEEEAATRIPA
UniProt Q96EV8: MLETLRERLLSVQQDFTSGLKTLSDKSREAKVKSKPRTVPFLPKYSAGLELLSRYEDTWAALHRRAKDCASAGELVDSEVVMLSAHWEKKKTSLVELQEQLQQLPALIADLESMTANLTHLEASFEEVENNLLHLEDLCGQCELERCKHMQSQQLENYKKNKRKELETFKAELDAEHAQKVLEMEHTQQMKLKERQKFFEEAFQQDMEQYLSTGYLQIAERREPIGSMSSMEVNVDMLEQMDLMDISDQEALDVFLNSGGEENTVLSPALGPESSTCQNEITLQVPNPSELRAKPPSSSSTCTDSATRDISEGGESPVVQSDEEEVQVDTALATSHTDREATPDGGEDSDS
UniProt Q15075: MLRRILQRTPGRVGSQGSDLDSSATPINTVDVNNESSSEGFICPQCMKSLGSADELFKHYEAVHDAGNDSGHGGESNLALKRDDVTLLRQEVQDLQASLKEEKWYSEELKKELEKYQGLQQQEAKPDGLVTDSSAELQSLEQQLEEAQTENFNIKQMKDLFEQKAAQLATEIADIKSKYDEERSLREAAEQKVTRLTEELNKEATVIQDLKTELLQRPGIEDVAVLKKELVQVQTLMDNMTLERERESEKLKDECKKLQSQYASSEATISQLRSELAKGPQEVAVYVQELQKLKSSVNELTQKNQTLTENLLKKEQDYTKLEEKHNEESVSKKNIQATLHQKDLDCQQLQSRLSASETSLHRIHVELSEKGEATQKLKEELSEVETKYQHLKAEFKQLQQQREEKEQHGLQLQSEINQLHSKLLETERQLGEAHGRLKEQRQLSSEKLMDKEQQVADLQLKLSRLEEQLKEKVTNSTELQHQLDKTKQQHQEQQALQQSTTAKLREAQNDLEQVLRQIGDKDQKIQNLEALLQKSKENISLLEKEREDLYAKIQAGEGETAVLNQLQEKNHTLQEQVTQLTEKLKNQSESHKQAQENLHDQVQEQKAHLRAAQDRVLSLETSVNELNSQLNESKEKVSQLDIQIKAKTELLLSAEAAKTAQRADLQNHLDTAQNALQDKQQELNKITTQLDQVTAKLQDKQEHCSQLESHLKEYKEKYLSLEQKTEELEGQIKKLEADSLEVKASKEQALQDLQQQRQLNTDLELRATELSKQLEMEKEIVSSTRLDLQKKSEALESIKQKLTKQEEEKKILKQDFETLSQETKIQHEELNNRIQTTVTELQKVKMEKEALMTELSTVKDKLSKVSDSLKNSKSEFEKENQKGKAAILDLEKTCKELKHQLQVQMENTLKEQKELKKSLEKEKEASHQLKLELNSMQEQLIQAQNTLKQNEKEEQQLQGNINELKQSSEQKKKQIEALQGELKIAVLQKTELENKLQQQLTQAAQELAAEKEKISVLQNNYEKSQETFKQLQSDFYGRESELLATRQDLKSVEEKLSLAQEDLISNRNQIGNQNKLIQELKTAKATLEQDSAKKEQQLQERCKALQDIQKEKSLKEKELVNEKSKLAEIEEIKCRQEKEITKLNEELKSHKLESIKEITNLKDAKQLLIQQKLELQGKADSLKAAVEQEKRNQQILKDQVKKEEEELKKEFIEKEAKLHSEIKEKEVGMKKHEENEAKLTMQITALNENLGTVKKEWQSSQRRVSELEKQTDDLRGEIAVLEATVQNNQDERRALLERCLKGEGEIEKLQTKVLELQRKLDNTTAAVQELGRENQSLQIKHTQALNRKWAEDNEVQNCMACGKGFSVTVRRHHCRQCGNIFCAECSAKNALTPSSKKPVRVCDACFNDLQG
UniProt Q9H2P9: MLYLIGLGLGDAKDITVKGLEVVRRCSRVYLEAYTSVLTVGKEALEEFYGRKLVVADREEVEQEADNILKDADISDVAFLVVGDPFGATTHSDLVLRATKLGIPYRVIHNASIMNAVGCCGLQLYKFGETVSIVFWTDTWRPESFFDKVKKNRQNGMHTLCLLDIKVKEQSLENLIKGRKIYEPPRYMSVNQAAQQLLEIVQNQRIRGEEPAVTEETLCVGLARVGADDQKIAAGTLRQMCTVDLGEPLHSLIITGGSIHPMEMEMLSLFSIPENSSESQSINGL
UniProt Q9H3Z4: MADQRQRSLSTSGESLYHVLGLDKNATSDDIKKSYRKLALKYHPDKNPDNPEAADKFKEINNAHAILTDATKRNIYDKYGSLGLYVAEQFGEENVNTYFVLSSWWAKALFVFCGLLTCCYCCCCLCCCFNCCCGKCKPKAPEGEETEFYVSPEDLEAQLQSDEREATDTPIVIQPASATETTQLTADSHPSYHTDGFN
UniProt Q99848: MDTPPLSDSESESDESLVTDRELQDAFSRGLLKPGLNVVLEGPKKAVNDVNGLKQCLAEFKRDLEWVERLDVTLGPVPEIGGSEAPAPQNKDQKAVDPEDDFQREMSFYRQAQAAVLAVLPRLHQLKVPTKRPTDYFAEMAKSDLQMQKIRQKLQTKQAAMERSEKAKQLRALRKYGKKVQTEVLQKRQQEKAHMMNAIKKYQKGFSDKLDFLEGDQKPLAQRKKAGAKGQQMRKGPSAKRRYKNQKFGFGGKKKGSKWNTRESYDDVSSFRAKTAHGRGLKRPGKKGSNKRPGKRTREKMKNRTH
UniProt Q6P3W2: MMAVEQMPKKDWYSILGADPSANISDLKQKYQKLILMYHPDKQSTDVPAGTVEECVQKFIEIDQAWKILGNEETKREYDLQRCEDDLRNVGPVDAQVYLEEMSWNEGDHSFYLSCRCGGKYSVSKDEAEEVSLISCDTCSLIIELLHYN
UniProt Q6XUX3: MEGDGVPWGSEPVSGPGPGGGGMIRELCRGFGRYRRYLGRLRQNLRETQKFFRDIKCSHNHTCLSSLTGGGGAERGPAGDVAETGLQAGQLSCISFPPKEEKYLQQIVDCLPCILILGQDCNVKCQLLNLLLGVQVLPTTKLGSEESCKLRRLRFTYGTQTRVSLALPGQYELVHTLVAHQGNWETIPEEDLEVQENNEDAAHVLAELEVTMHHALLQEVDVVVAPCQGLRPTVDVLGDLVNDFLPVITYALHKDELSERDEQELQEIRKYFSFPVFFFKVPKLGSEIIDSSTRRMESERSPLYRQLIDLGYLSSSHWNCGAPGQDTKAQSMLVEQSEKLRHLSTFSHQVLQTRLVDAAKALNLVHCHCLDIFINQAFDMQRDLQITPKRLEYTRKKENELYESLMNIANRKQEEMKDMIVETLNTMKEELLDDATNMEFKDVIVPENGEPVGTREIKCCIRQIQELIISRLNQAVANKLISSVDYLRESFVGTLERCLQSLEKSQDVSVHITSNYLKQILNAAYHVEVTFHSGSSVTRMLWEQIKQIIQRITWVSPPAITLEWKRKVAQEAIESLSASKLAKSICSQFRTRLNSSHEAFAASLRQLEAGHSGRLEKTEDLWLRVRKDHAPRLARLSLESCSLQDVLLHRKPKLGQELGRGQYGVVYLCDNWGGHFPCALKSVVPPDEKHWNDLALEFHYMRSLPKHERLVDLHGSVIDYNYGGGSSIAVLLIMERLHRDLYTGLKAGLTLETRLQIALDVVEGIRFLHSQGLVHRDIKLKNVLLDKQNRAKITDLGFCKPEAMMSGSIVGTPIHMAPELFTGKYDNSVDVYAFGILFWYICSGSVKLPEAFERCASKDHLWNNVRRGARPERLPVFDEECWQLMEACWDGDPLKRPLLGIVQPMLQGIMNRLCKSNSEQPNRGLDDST
UniProt O95147: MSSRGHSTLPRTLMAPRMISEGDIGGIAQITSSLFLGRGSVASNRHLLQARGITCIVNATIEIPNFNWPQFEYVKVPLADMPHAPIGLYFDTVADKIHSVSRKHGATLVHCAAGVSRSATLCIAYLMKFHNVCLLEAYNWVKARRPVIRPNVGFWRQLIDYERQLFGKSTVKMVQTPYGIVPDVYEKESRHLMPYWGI

This is one part of the list.

Compound in one assay: CN1CCN(c2nc(C3=C(c4c[nH]c5ccccc45)C(=O)NC3=O)c3ccccc3n2)CC1 [sotrastaurin]
Kind of assay: log2 fold change, soluble protein after heating vs DMSO (PISA); higher = thermal stabilisation; K562 cells, 10 uM, 30 min; active = over 0.2 and 3.5 SD of the protein, either way, in both replicates (recomputed). In short, it runs like this: (§1)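 K562 cells at 2×10^6 cells/mL were treated for 30 min with 10 μM compound, and aliquots were heated for 3 min over 48°C-58°C before pooling. Extraction used PBS with 0.5% NP-40 at 4°C, and soluble protein was the supernatant after 21,000xg for 90 min, measured by TMTpro 16plex LC-MS/MS with channel sums equalised. Thermal stability values, relative to control samples and from duplicates, are log2 fold changes.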
On to DNAJC1 (UniProt Q96KC8), for which the log2 fold change is inactive: -0.028.
On the same count and under the same terms, with DNAJB1 (UniProt P25685) the figure was inactive: -0.03; with EARS2 isoform 2 (UniProt Q5JPH6), inactive: -0.048; with ECPAS (UniProt Q5VYK3), inactive: -0.124.
The same measure, in the same setting: with DNPEP (UniProt C9JBE1) the figure was inactive: 0.035.
For the target DYNC1LI2 (UniProt O43237), the log2 fold change is inactive: -0.079.
On the same count and under the same terms, with DNM2 isoform 4 (UniProt P50570) the figure was inactive: -0.024; with DUSP9 (UniProt Q99956), inactive: -0.166.
Still for that read-out and setting: the result for DOCK8 (UniProt Q8NF50) reads inactive: -0.398; that for DTYMK (UniProt P23919), inactive: 0.06; that for DOK1 (UniProt Q99704), inactive: -0.037.
Still for that read-out and setting: the result for EDRF1 (UniProt Q3B7T1) reads inactive: 0.012.
For the target DUS3L (UniProt Q96G46), the log2 fold change is inactive: -0.155.
On the same count and under the same terms, the result for DNM2 (UniProt P50570) reads inactive: 0.043; that for DYRK1A isoform 2 (UniProt Q13627), inactive: 0.022.
Still for that read-out and setting: the result for DYNC1I2 isoform 5 (UniProt Q13409) reads inactive: 0.021; that for DTNBP1 (UniProt Q96EV8), inactive: 0.026.
On the same count and under the same terms, the result for DNAJB14 (UniProt Q8TBM8) reads inactive: -0.024.
As to EEA1 (UniProt Q15075), the log2 fold change was inactive: 0.013.
On the same count and under the same terms, the result for DPH5 isoform 5 (UniProt Q9H2P9) reads inactive: -0.017; that for DNAJC5 (UniProt Q9H3Z4), inactive: 0.083; that for EDEM2 (UniProt Q9BV94), inactive: -0.05.
On the same count and under the same terms, the result for EBNA1BP2 (UniProt Q99848) reads inactive: -0.138; that for DNAJC24 (UniProt Q6P3W2), inactive: -0.081.

Compound in the next assay: CN1CC[C@H](c2c(O)cc(O)c3c(=O)cc(-c4ccccc4Cl)oc23)[C@H](O)C1 [alvocidib]
The assay is described as above. The gist of the method:
as §1
For DXO (UniProt O77932), the log2 fold change was inactive: 0.029.
As to DNPH1 (UniProt H0Y8X4), the log2 fold change is inactive: 0.003.
Same read-out and setting: with DSTYK (UniProt Q6XUX3) the figure was inactive: -0.228; with DOK1 (UniProt Q99704), inactive: 0.042; with DNAJB14 (UniProt Q8TBM8), inactive: -0.074.
DUSP14 (UniProt O95147): the log2 fold change is inactive: -0.145.

Compound in the next assay: CN1CCc2c(c3ccccc3n2Cc2ccc(C(=O)NO)cc2)C1 [Tubastatin A]
The description is as above. In short, it runs like this: as §1
In the case of DNAJC1 (UniProt Q96KC8), the log2 fold change was inactive: 0.018.
Still for that read-out and setting: the result for DXO (UniProt O77932) reads inactive: 0.029; that for DNPH1 (UniProt H0Y8X4), inactive: 0.097.
With DNAJB1 (UniProt P25685), the log2 fold change was inactive: -0.001.
Still for that read-out and setting: with DSTYK (UniProt Q6XUX3) the figure was inactive: -0.152.
On the same count and under the same terms, with EARS2 isoform 2 (UniProt Q5JPH6) the figure was inactive: 0.042; with ECPAS (UniProt Q5VYK3), inactive: 0.038; with DNPEP (UniProt C9JBE1), inactive: -0.381.
On the same count and under the same terms, the result for DYNC1LI2 (UniProt O43237) reads inactive: 0.033; that for DOCK8 (UniProt Q8NF50), inactive: 0.166.
On to DTYMK (UniProt P23919), for which the log2 fold change was inactive: -0.022.
On the same count and under the same terms, with DOK1 (UniProt Q99704) the figure was inactive: 0.017; with DUS3L (UniProt Q96G46), inactive: -0.028; with DNM2 (UniProt P50570), inactive: 0.
In the case of DYRK1A isoform 2 (UniProt Q13627), the log2 fold change is inactive: 0.058.
On the same count and under the same terms, the result for DYNC1I2 isoform 5 (UniProt Q13409) reads inactive: 0.003; that for DTNBP1 (UniProt Q96EV8), inactive: 0.023; that for DNAJB14 (UniProt Q8TBM8), inactive: 0.038.
The same measure, in the same setting: with EEA1 (UniProt Q15075) the figure was inactive: -0.014.
The same measure, in the same setting: the result for DPH5 isoform 5 (UniProt Q9H2P9) reads inactive: -0.022; that for DUSP14 (UniProt O95147), inactive: 0.004; that for DNAJC5 (UniProt Q9H3Z4), inactive: -0.07.
EDEM2 (UniProt Q9BV94): the log2 fold change was inactive: 0.022.
The same measure, in the same setting: the result for EBNA1BP2 (UniProt Q99848) reads inactive: 0.34.
Same read-out and setting: with DNAJC24 (UniProt Q6P3W2) the figure was inactive: -0.094.

Compound in a further assay: CNC(=O)C1=CC=CC=C1NC2=NC(=NC=C2Cl)NC3=C(C=C(C=C3)N4CCOCC4)OC
Described as above. The gist of the method:
as §1
DNAJC1 (UniProt Q96KC8): the log2 fold change is inactive: 0.046.
Same read-out and setting: with DXO (UniProt O77932) the figure was inactive: 0.047.
Same read-out and setting: the result for DNPH1 (UniProt H0Y8X4) reads inactive: -0.052; that for DNAJB1 (UniProt P25685), inactive: -0.011.
As to DSTYK (UniProt Q6XUX3), the log2 fold change was inactive: -0.079.
In the case of EARS2 isoform 2 (UniProt Q5JPH6), the log2 fold change was inactive: -0.125.
The same measure, in the same setting: with ECPAS (UniProt Q5VYK3) the figure was inactive: 0.012; with DPYSL3 isoform 2 (UniProt Q14195), inactive: 0.195; with DNPEP (UniProt C9JBE1), inactive: -0.175.
On the same count and under the same terms, with DYNC1LI2 (UniProt O43237) the figure was inactive: 0.028.
Same read-out and setting: the result for DNM2 isoform 4 (UniProt P50570) reads inactive: -0.088; that for DUSP9 (UniProt Q99956), inactive: 0.241; that for DOCK8 (UniProt Q8NF50), inactive: -0.163.
For the target DTYMK (UniProt P23919), the log2 fold change was inactive: -0.062.
On the same count and under the same terms, with DOK1 (UniProt Q99704) the figure was inactive: -0.036.
On the same count and under the same terms, with EDRF1 (UniProt Q3B7T1) the figure was inactive: -0.111; with DUS3L (UniProt Q96G46), inactive: 0.022; with DNM2 (UniProt P50570), inactive: -0.027.
Same read-out and setting: the result for DYRK1A isoform 2 (UniProt Q13627) reads active: -0.264; that for DYNC1I2 isoform 5 (UniProt Q13409), inactive: 0.012; that for DTNBP1 (UniProt Q96EV8), inactive: 0.
As to DNAJB14 (UniProt Q8TBM8), the log2 fold change is inactive: -0.167.
Same read-out and setting: with EEA1 (UniProt Q15075) the figure was inactive: -0.014.
Take DPH5 isoform 5 (UniProt Q9H2P9): the log2 fold change was inactive: 0.07.
Same read-out and setting: with DUSP14 (UniProt O95147) the figure was inactive: -0.212.
Same read-out and setting: with DNAJC5 (UniProt Q9H3Z4) the figure was inactive: 0.019; with EDEM2 (UniProt Q9BV94), inactive: -0.016; with EBNA1BP2 (UniProt Q99848), inactive: -0.047.
In the case of DNAJC24 (UniProt Q6P3W2), the log2 fold change is inactive: -0.033.
